For this data set, the target named is prostate-specific antigen (PSA) (human) (UniProt P07288). Nature of the data set: binding assay. Particulars: 2 mM MgCl2, 0.02% Tween-20 in PBS pH 7.4 (original work); ELONA: PSA 250 ng/well adsorbed; aptamers 3.9-500 nM in PBS + 5 mM MgCl2, 1 h at 37 C; block 3% BSA + 100 nM ssDNA mix; wash PBS 0.05% Tween-20; commercial protein; folded or branched DNA.

Chains of the proteins cited; added tags and fusions are not shown. Residues count along the entry.
UniProt P07288, 25-261: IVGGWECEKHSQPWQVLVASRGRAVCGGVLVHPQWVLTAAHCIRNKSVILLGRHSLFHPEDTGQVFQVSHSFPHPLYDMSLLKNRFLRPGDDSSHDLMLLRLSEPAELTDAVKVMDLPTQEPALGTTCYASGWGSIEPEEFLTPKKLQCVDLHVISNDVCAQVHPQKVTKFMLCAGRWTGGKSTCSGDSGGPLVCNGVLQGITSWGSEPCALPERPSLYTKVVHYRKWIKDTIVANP

For at least one entry, the source does not settle the construct or the ends of the probe.

As a reminder, the Kd is the constant that tells how readily two partners part at equilibrium.

Regarding “GGGCGGGGCGGACGAGACAGTAAGGGCTGTGGGTGTGGTG [AS2]”, the Kd was 0.7 pM.

These data come from paper PMC12787490.
